According to US9808434B2, “Compound for treating cancer and diabetes” (CITY OF HOPE, priority 2011, dated 2017):
Some entries share one result that the patent states for a list of compounds. At least one structure is not confirmed: it was looked up by name or label, or the drawing left a doubt.

Tests used:
HL-60 cells [1] = experiment: HL-60 cell cycle, PI flow cytometry; assay type: cell-based, human; conditions: 24-hour treatment; control 46%
Method: HL-60 cells (1×10^6) were incubated with a test compound (COH-SR4 or COH-SR9) at various concentrations (0.5˜3 μM) for 48 hours, washed and harvested. The cells were then fixed and stained with propodium iodide (P1) and the DNA content was analyzed by flow cytometry. Results of each figure were from 3-4 independent experiments. The cell number in each cell cycle phase was calculated and expressed as overall percentage (FIG. 15A). The percentage of cells in G0/G1 were measured from 0-48-hour treatment with test compounds (FIG. 15B), data expressed as mean±SE.

HL-60 cells [2] = experiment: HL-60 cell viability, MTT assay; conditions: 48 hours

SMILES: O=C(Nc1cc(Cl)cc(Cl)c1)Nc1cc(Cl)cc(Cl)c1 [COH-SR4, 1,3-bis(3,5-dichlorophenyl) urea]
- cells in G0/G1 phase (HL-60 cells [1]): more than 70%

SMILES: Cc1c(Cl)cc(NC(=O)Nc2cc(Cl)cc(Cl)c2)c(O)c1Cl [COH-SR9, 1-(3,5-dichlorophenyl)-3-(3,5-dichloro-2-hydroxy-4-methyphenyl) urea]
- cells in G0/G1 phase (HL-60 cells [1]): more than 70%
- IC50 (HL-60 cells [2]): < 5 µM
